The record followed here is PMC11096365, “Cryo-EM structures of the human Elongator complex at work” (Nature Communications, 2024).

What all share (assay): MST
Series [1] relates to ELP1 + ELP2 + ELP3 wild type. The following applies: MST: 20 mM HEPES pH 7.5, 100 mM NaCl, 5 mM DTT, 0.05% Tween 20, incubated at 4 C 30 min, measured at 25 C, Cy5-tRNA 14 or 30 nM, recombinant protein, protein details: C-terminal Twin-Strep-Tag; for binding result: label: internal Cy5 (5% Cy5-CTP).
In series [2] the test system is ELP1 + ELP2 + ELP3 Δ1-85 del1-85. The following applies: 2-4 fold lower affinity than WT (range for three mutants); MST: 20 mM HEPES pH 7.5, 100 mM NaCl, 5 mM DTT, 0.05% Tween 20; incubated at 4 C 30 min, measured at 25 C; Cy5-tRNA 14 or 30 nM; recombinant protein; protein details: C-terminal Twin-Strep-Tag; label: internal Cy5 (5% Cy5-CTP) for MST.
For another series, the system named is ELP1 + ELP2 + ELP3 R364A. The following applies: 2-4 fold lower affinity than WT (range for three mutants); MST: 20 mM HEPES pH 7.5, 100 mM NaCl, 5 mM DTT, 0.05% Tween 20; incubated at 4 C 30 min, measured at 25 C; Cy5-tRNA 14 or 30 nM; recombinant protein; protein details: C-terminal Twin-Strep-Tag; label: internal Cy5 (5% Cy5-CTP) for MST.
Another series concerns ELP1 + ELP2 + ELP3 R361A. As to conditions: 2-4 fold lower affinity than WT (range for three mutants); MST: 20 mM HEPES pH 7.5, 100 mM NaCl, 5 mM DTT, 0.05% Tween 20; incubated at 4 C 30 min, measured at 25 C; Cy5-tRNA 14 or 30 nM; recombinant protein; protein details: C-terminal Twin-Strep-Tag; label: internal Cy5 (5% Cy5-CTP) for MST.

For some of these results: Weaker means in comparison with the reference protein, sequence or condition of that experiment. For some of these results: For at least one entry, the source does not settle the construct or the ends of the probe. For some of these results: At least one verdict was read from the data and is not stated in words by the source.

In the case of “GCCCGGAUAGCUCAGUCGGUAGAGCAUCAGACUUUUAAUCUGAGGGUCCAGGGUUCAAGUCCCUGUUCGGGCGCCA [tRNALysUUU]”, in series [1], the binding result is “binds”.

As a reminder, the Kd is the constant that tells how readily two partners part at equilibrium. Consider “GGCCCCAUGGUGUAAUGGUUAGCACUCUGGACUUUGAAUCCAGCGAUCCGAGUUCAAAUCUCGGUGGGACCUCCA [tRNAGlnUUG]”, for which the Kd in series [1] (500 uM desulpho-CoA, label: internal Cy5 (5% Cy5-CTP) for MST) was 183 nM. Moreover, the binding result (in series [2]; in the series on ELP1 + ELP2 + ELP3 R364A; with ELP1 + ELP2 + ELP3 R361A) was “binds more weakly” throughout.

For “GUCUCUGUGGCGCAAUGGACGAGCGCGCUGGACUUCUAAUCCAGAGGUUCCGGGUUCGAGUCCCGGCAGAGAUGCCA [tRNAArgUCU]”, the binding result in series [1] was “binds”.

Regarding “UCCCUGGUGGUCUAGUGGCUAGGAUUCGGCGCUUUCACCGCCGCGGCCCGGGUUCGAUUCCCGGUCAGGGAACCA [tRNAGluUUC]”, in series [1], the binding result is recorded as “binds”.
